Some of the results follow.

The subject of the test is T1, CTL2-GFP (C. trachomatis L2/434/Bu, GFP-expressing).
T1 construct: L2/434/Bu, GFP-expressing
Details: species or system HeLa; Intracellular C. trachomatis growth in HeLa cells, bulk GFP fluorescence relative to DMSO. The conditions noted are these: bulk GFP, single well; 28.5 h, 10 µM; inhibitor.
For the compound `Cn1ccnc1C1(O)CC2CCC(C1)N2C(=O)c1cccc(F)c1` (stereo not drawn) [CBK284089], the “% of control remaining” value stood at 129.881%. Consider `O=C1NN(c2cccc(Cl)c2)C(=O)/C1=C\c1ccc(-c2ccc3c(c2)C(=O)NC3=O)o1` [CBK262970], for which the “% of control remaining” value was found to be 110.228%. Next, `Cc1cc(C)c(NS(=O)(=O)c2ccc(NC(=S)Nc3ccc(S(N)(=O)=O)cc3)cc2)c(C)c1` [CBK267005]: 106.598%. Turning to `O=C(c1cscn1)N1CCCCC1c1nc2ccccc2[nH]1` (stereo not drawn) [CBK283394], the “% of control remaining” value is recorded as 123.736%. `Cc1cc(Oc2ccccc2)nc(Oc2ccc(OCC(N)=O)nn2)n1` [CBK266687]: the “% of control remaining” value came out at 158.56%. For `CCCc1c(C)nc2ccccc2c1SCC(=O)O` [CBK263558], the “% of control remaining” value is 100%. As for `COC(=O)c1c(NC(=S)NCc2cccs2)sc(C)c1-c1ccccc1` [CBK266943], the “% of control remaining” value is 162.052%. As for `O=C(c1cccnc1N1CCCCC1)N1CCCCC1` [CBK025882], the “% of control remaining” value was determined as 123.574%.

Regarding `O=C(Cc1cc(F)c(F)c(F)c1)Nc1ccc2ncccc2c1` [CBK159811], the “% of control remaining” value is 110.757%. As to `O=C(C1CCCN(c2nc3c(-c4ccccc4)csc3c(=O)[nH]2)C1)N1CCOCC1` (stereo not drawn) [CBK215582], the “% of control remaining” value is reported as 132.036%.

On to `Cc1nc(C)c(C(=O)N2CCC(c3cc4c(C)cccc4cn3)CC2)o1` [CBK285186], for which the “% of control remaining” value was 55.555%. With `O=C(Nc1cccc(F)c1)c1cc2ccccc2cc1O` [CBK016863], the “% of control remaining” value is listed as 99.2138%. Next, `O=C(CSc1nc2[nH]ncc2c(=O)n1-c1ccccc1)Nc1ccc(F)c(Cl)c1` [CBK266453]: 105.215%; `COc1ccc(COc2nc3ccccc3nc2NC(C)C)cc1OC` [CBK116610]: 100%; `OCCOc1nc2ccccc2s1` [CBK001812]: 94.5812%.

With `Cc1ccc(Oc2c([N+](=O)[O-])c(C)nn2C)c(Br)c1` [CBK000283], the “% of control remaining” value is 119.878%. On to `Cc1ccc(Nc2ncc(C(=O)NCc3ccccn3)c3ccccc23)cc1Cl` [CBK291113], for which the “% of control remaining” value was 148.832%. In the case of `c1cc(CNCCN2CCOCC2)cs1` [CBK001894], the “% of control remaining” value was 102.432%.

Consider `Cc1ccc(S(=O)(=O)NC(C)C(=O)NCc2ccco2)cc1` (stereo not drawn) [CBK266514], for which the “% of control remaining” value stood at 102.097%. Consider `COC(=O)c1c(C)[nH]c(C(=O)N2CCCC2c2cccnc2)c1C` (stereo not drawn) [CBK296639], for which the “% of control remaining” value is 133.639%.

Turning to `O=C(c1cc(-c2ccc(Cl)cc2)[nH]n1)N1CCN(c2ncccn2)CC1` [CBK116551], the “% of control remaining” value came to 108.207%.

For `CCN(CC)CCN(C(=O)NCCc1c[nH]c2ccc(OC)cc12)C(C)c1ccc(OC)c(OC)c1` (stereo not drawn) [CBK158948], the “% of control remaining” value stood at 123.626%.

On to `Cc1nc(Cc2nc(-c3ccc4c(c3)CCCN4S(C)(=O)=O)cs2)cs1` [CBK304542], for which the “% of control remaining” value is 121.427%. Take `CC(C)(C)OC(=O)N1CCC(Oc2ccc(CN)cc2)CC1` [CBK004131]: the “% of control remaining” value is listed as 133.763%. In the case of `COCCNC(=O)c1ccc(-c2ccccc2)nc1NCC1CC1` [CBK106242], the “% of control remaining” value came out at 117.955%.

Consider `N#CCC(=O)N1CCN(Cc2ccc3c(c2)OCO3)CC1` [CBK074447], for which the “% of control remaining” value was 114.276%. Consider `O=C(O)/C=C\C(=O)Nc1ccccc1C(=O)N1CCOCC1` [CBK287067], for which the “% of control remaining” value was determined as 113.506%. Turning to `Cc1nc(C2CCCCN2C(=O)CCc2ccccc2)ncc1C(=O)Nc1ccc(F)cc1` (stereo not drawn) [CBK285870], the “% of control remaining” value is given as 98.8703%. Turning to `N#Cc1ccc(C(=O)N2C[C@@H]3C[C@H](C2)c2ccc(-c4cccs4)c(=O)n2C3)cc1` [CBK289180], the “% of control remaining” value came out at 143.28%. `CCOC(=O)c1c[nH]c2nc(COc3ccccc3)nn2c1=O` [CBK268088]: the “% of control remaining” value was found to be 96.9649%. Regarding `CC(=O)N1CCN(c2nc3ccccc3s2)CC1` [CBK287362], the “% of control remaining” value is reported as 121.471%. With `Oc1cc(Cc2ccccc2)cnc1CN1CCOCC1` [CBK288173], the “% of control remaining” value turned out to be 123.104%. For the compound `O=C(Cc1ccccc1Oc1ccccc1)Nc1cnc(-c2ccc(F)cc2)c(-c2ccco2)n1` [CBK037194], the “% of control remaining” value turned out to be 92.0604%. Consider `O=C(Oc1ccc(Cl)cc1)c1cc(S(=O)(=O)N2CCOCC2)ccc1Cl` [CBK261670], for which the “% of control remaining” value was determined as 111.457%. The result for `O=C(c1nc(SCc2ccccc2)ncc1Cl)N1CCN(c2cccc(Cl)c2)CC1` [CBK268712] reads 99.2487%; that for `CC(C)(C)OC(=O)NC1CCC(NCc2c[nH]c(-c3ccccc3)n2)CC1` (stereo not drawn) [CBK056692], 195.279%; that for `O=C(O)CN1C(=O)S/C(=C\c2ccc([N+](=O)[O-])o2)C1=O` [CBK017858], 51.0045%. For `O=C(CN1C(=O)N2CCCN=C2c2ccccc21)NC1CCCC1` [CBK284397], the “% of control remaining” value amounted to 101.672%. Next, `CC(C)(C)OC(=O)N1CCC(CNS(=O)(=O)c2cccs2)CC1` [CBK086019]: 141.694%. For the compound `O=S(=O)(c1ccccc1)c1ccccc1C(F)(F)F` [CBK085887], the “% of control remaining” value came to 91.1464%.

For `O=c1[nH]nc2c(S(=O)(=O)N3CCOCC3)cccn12` [CBK288469], the “% of control remaining” value was found to be 124.402%. Consider `Nc1ncc(-c2ccoc2)nc1-c1ccc(C(=O)O)cc1` [CBK063972], for which the “% of control remaining” value came to 112.64%. As to `Cc1nn(CC(=O)N(C)CCn2ccnc2C)c(=O)c2ccccc12` [CBK306536], the “% of control remaining” value amounted to 118.262%.

Consider `COc1cc(-c2noc(-c3cc(-c4ccccc4)n[nH]3)n2)cc(OC)c1OC` [CBK287774], for which the “% of control remaining” value is 114.981%. For the compound `OCCN1CCN(c2nc3ccccc3nc2-c2ccccc2)CC1` [CBK268799C], the “% of control remaining” value worked out at 92.832%.

On to `CC(C)c1cc(C(=O)N2CCOCC2)c(NC(=O)c2cc(-c3cccnc3)nc3ccc(Br)cc23)s1` [CBK267763], for which the “% of control remaining” value is reported as 123.498%. The result for `NS(=O)(=O)c1cccc2c1CC1(CC2)OCCO1` [CBK010703] reads 120.123%; that for `O=C(c1ccc(-c2cncc(-c3ccc(Cl)s3)n2)cc1)N1CCOCC1` [CBK138517], 105.211%. Regarding `CCN(CC)CCSc1nc2sc3c(c2c(=O)n1-c1ccccc1)CC(C)(C)OC3` [CBK263728], the “% of control remaining” value is 120.167%. For the compound `Cc1ccc(C(C)(C)CC(C)NC2C3CC4CC(C3)CC2C4)o1` (stereo not drawn) [CBK262871], the “% of control remaining” value is on record as 115.63%.

As to `Cc1cc(C)n(CC(C)CNC(=O)CCCN(C)C)n1` (stereo not drawn) [CBK304831], the “% of control remaining” value was 75.6182%. The result for `O=C(Nc1c(Cl)cccc1Cl)c1ccc(-c2ccccc2)cc1` [CBK262300] reads 95.8761%; that for `Cc1nc2c(OCc3ccc(F)c(F)c3)cccn2c1N(C)C(=O)CCC1CCCC1` [CBK147202], 161.251%; that for `Cc1nc2cc(OCc3nc(C(=O)N(C)CCN(C)C)co3)ccc2s1` [CBK306685], 69.2189%. On to `O=C(O)c1ccccc1-c1ccc(-c2cc(C(=O)O)c3cc(F)ccc3n2)o1` [CBK269051], for which the “% of control remaining” value came out at 114.517%. Next, `Cc1cc(=O)[nH]c(SCC(=O)O)c1C#N` [CBK019224]: 117.453%; `CCCCOc1nccnc1/C=C/c1ccccc1` [CBK106890]: 188.565%; `CCCCCCc1ccc(NS(=O)(=O)c2cc3c(NCCN(C)C)nccc3s2)cc1` [CBK038253C]: 110.954%. Turning to `COC(=O)c1cccc(OCC(O)Cn2nc(C)c(C)c(C#N)c2=O)c1` (stereo not drawn) [CBK305563], the “% of control remaining” value came to 139.341%. For the compound `CC(C)(C)C(=O)N1CC(n2nc(-c3ccccc3)ccc2=O)C1` [CBK284623], the “% of control remaining” value is given as 142.022%.

In the case of `COc1ccc(NC(=O)CC(CN(C)Cc2ccccc2)C(=O)O)cc1` (stereo not drawn) [CBK286854], the “% of control remaining” value is 133.273%.

`CCc1ccc(-c2ccc(-c3cc(C(=O)O)c4cc(Br)ccc4n3)o2)cc1` [CBK300543]: the “% of control remaining” value came out at 94.1348%.

With `COc1ccc(CNC(=O)[C@H]2C=CCN2C(=O)c2cccs2)cc1` [CBK282325], the “% of control remaining” value was 123.524%. Take `CCOc1ccc(S(=O)(=O)N2CCC(C(=O)O)CC2)cc1Cl` [CBK269759]: the “% of control remaining” value amounted to 116.479%. With `O=C(CSc1ccc(Cl)cc1)NNC(=O)c1cccc([N+](=O)[O-])c1` [CBK268384], the “% of control remaining” value is reported as 129.704%. In the case of `S=c1ccc(N/N=C/C2CC=CCC2)n[nH]1` (stereo not drawn) [CBK018655], the “% of control remaining” value was determined as 124.568%. With `Cc1ccc(S(=O)(=O)N2CCCC(C(=O)O)C2)cc1` (stereo not drawn) [CBK100948], the “% of control remaining” value was determined as 102.182%.

Consider `O=C(O)[C@H]1CCCN1Cc1cc(Cl)ccc1OCCCn1ccnc1` [CBK307436], for which the “% of control remaining” value was determined as 148.496%. As for `CC(C)C(=O)N[C@H]1C[C@@H](Cc2cc(CN3CCOCC3)on2)C1(C)C` [CBK289248], the “% of control remaining” value is reported as 158.015%. The result for `COc1ccc(C(=O)COc2nc3c(C(F)(F)F)cc(C4CC4)nc3o2)cc1` [CBK269498] reads 136.145%. With `O=C(Nc1cccnc1)c1cc(S(=O)(=O)N2CCCCC2)c(Cl)cc1Cl` [CBK264567], the “% of control remaining” value was 103.756%. As for `COc1cc(/C=C/c2nc(O)c([N+](=O)[O-])c(=O)[nH]2)ccc1OCC(=O)N1CCOCC1` [CBK267168], the “% of control remaining” value was 149.394%. On to `Cc1noc(NS(=O)(=O)c2ccc(NC(=O)C3COc4ccccc4O3)cc2)c1C` (stereo not drawn) [CBK264923], for which the “% of control remaining” value came out at 70.0473%. Regarding `COc1ccc(Br)cc1S(=O)(=O)Nc1ccc(C(=O)O)cc1` [CBK034047], the “% of control remaining” value is reported as 96.554%. Regarding `O=c1[nH]c2ccccc2n1CCCN1CCN(c2nccnc2Oc2ccc(F)cc2)CC1` [CBK083027T], the “% of control remaining” value is reported as 172.482%. As to `O=[N+]([O-])c1cc(/C=N/Nc2nnn[nH]2)ccc1N1CCOCC1` [CBK262199], the “% of control remaining” value was determined as 135.794%. On to `CC(=O)N1C[C@@H]2OCC(=O)N(Cc3ccccn3)[C@@H]2C1` [CBK289245], for which the “% of control remaining” value was 162.388%. The result for `CCOC(=O)CN1C(=O)S/C(=C/c2cc(C)n(-c3ccc(S(N)(=O)=O)cc3)c2C)C1=O` [CBK265410] reads 102.783%.
